PubChem BioAssay AID1259286, Sanger Institute | 2017

Purpose: 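Kinase knock-downs that reduce colorectal cancer cell viability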 (primary screen)
Cells: NCI-H630 human colorectal cancer cells
Knock-down reagent: siRNA pool against human genes
Treatment: anchor drugs BYL719 at 1 µM, cetuximab at 5 µg/ml or trametinib at 10 nM, or DMSO vehicle alone; exposure time not given
Measured: 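Viability relative to non-targeting pool wells, averaged over replicates, with robust z-score for knock-down alone and a synergy score for each anchor drug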
Reading the numbers: viability z-score, knock-down alone: higher = more viable cells, weaker knock-down effect; viability vs control, knock-down alone: higher = more viable cells; synergy score with trametinib: higher = stronger synergistic killing with trametinib; synergy score with BYL719: higher = stronger synergistic killing with BYL719; synergy score with cetuximab: higher = stronger synergistic killing with cetuximab
Call rule: 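a gene is called essential when its knock-down-alone viability robust z-score is below -3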
Meaning of the calls: active = essential when knocked down alone; inactive = not essential alone
This is a random part of 794 deposited reagents. Of all reagents, 17 (2.1%) got an active call. 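Calls use knock-down alone only; synergy above 0.15 marked separately; viability seems capped at control level; exposure time not given.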 Entries without a mark were called inactive. Not given: the amount of reagent, the time to read-out.

| gene knocked down | viability z-score, knock-down alone | viability vs control, knock-down alone (fraction of control) | synergy score with trametinib | synergy score with BYL719 | synergy score with cetuximab |
| --- | --- | --- | --- | --- | --- |
| STKLD1 | 0.269 | 0.993 | -0.0317 | 0.0985 | 0.137 |
| PRKCB | 0.464 | 1 | -0.0479 | -0.0021 | 0.072 |
| PAK5 | 0.464 | 1 | 0.035 | -0.0429 | 0.099 |
| PIP5K1C | -3.57 (active) | 0.847 | -0.0875 | -0.112 | 0.0283 |
| SCYL3 | 0.464 | 1 | 0.0437 | 0.0801 | 0.0164 |
| PRKCI | 0.216 | 0.991 | -0.0568 | 0.0607 | 0.0104 |
| KALRN | 0.464 | 1 | -0.0479 | 0.0324 | 0.135 |
| PRKAR1B | 0.256 | 0.992 | -0.0554 | 0.0781 | 0.2 |
| STK32A | 0.464 | 1 | -0.0479 | -0.0814 | -0.0581 |
| ITPK1 | 0.464 | 1 | -0.0335 | -0.0287 | 0.00358 |
| CASP8 | 0.464 | 1 | -0.0479 | -0.062 | 0.000269 |
| PHKG2 | 0.464 | 1 | -0.0479 | -0.0669 | -0.0595 |
| MAP3K13 | 0.464 | 1 | -0.0148 | -0.0242 | 0.0484 |
| AK7 | -1.2 | 0.937 | -0.0677 | -0.139 | -0.0275 |
| TCF7L2 | 0.464 | 1 | 0.0377 | -0.0814 | -0.00538 |
| GRK6 | 0.186 | 0.989 | -0.0579 | -0.0303 | 0.0129 |
| DGKH | 0.464 | 1 | -0.0479 | -0.0487 | 0.0744 |
| DIS3 | -0.126 | 0.978 | -0.0294 | -0.0982 | 0.0505 |
| MINK1 | 0.258 | 0.992 | 0.00578 | 0.0413 | -0.0142 |
| PDK3 | 0.464 | 1 | -0.0479 | -0.0246 | 0.0963 |
| NUP62 | -1.36 | 0.931 | -0.114 | -0.134 | -0.0901 |
| CAMK2G | 0.464 | 1 | -0.0377 | -0.0814 | -0.121 |

Individual results from the list:
TCF7L2, viability z-score, knock-down alone → 0.464
Value of MAP3K13 under “viability vs control, knock-down alone (fraction of control)”: 1
Under “viability vs control, knock-down alone (fraction of control)”, KALRN reads 1
Under “synergy score with trametinib”, CASP8 reads -0.0479
Entry of STK32A under “synergy score with BYL719”: -0.0814
PRKCI, viability z-score, knock-down alone = 0.216

Additional reagents follow:
| gene knocked down | viability z-score, knock-down alone | viability vs control, knock-down alone (fraction of control) | synergy score with trametinib | synergy score with BYL719 | synergy score with cetuximab |
| --- | --- | --- | --- | --- | --- |
| OBSCN | 0.464 | 1 | -0.0479 | -0.0814 | 0.031 |
| YES1 | 0.464 | 1 | -0.0479 | 0.079 | -0.0131 |
| MPP1 | -2.38 | 0.892 | -0.104 | -0.131 | 0.0323 |
| PDGFRB | -2.01 | 0.906 | -0.00153 | 0.0979 | 0.0986 |
| CDKN1C | 0.464 | 1 | -0.0479 | -0.0605 | 0.00542 |
| CAMK4 | 0.464 | 1 | -0.0479 | -0.0679 | 0 |
| MAPKAPK2 | 0.464 | 1 | -0.0479 | 0.0149 | -0.00152 |
| SMAD4 | -0.378 | 0.968 | -0.0561 | -0.0198 | -0.0582 |
| NEK3 | -0.686 | 0.957 | -0.0893 | 0.0457 | 0.0578 |
| PIP5K1A | -0.444 | 0.966 | -0.0805 | -0.0131 | 0.0282 |
| BRWD1 | -0.351 | 0.969 | 0.00438 | 0.0198 | 0.0816 |
| CSNK1A1 | 0.464 | 1 | -0.0154 | -0.0149 | -0.0352 |
| TRPM7 | -0.168 | 0.976 | -0.0706 | -0.103 | 0.0164 |
| LRRK2 | 0.464 | 1 | -0.0479 | -0.0814 | 0.0341 |
| DYRK3 | -1.48 | 0.926 | -0.0559 | -0.149 | -0.135 |
| CALM2 | 0.464 | 1 | -0.0237 | 0.0611 | 0.00958 |
| PRKAG1 | -1.92 | 0.91 | -0.134 | -0.083 | -0.0721 |
| PKDCC | 0.464 | 1 | -0.0479 | -0.0619 | 0.0439 |
| MSR1 | 0.464 | 1 | -0.0479 | -0.0157 | 0.00741 |
| NTN4 | 0.161 | 0.989 | 0.085 | 0.0197 | 0.145 |
| GRK1 | 0.464 | 1 | -0.0479 | -0.0293 | 0.0525 |
| ITPKA | 0.464 | 1 | -0.0479 | 0.0769 | 0.0585 |
| SPHK1 | -0.6 | 0.96 | -0.0719 | 0.0698 | 0.0365 |
| CDK14 | 0.464 | 1 | -0.0479 | 0.00912 | 0.0327 |
| TAF1 | 0.169 | 0.989 | -0.0245 | -0.0203 | 0.0061 |
| IKBKG | 0.464 | 1 | -0.0479 | 0.0859 | 0.00666 |
| PTK2B | 0.464 | 1 | -0.024 | -0.0814 | 0.0414 |
| HK2 | 0.464 | 1 | -0.0479 | -0.0303 | 0.101 |
